Measurements from paper PMC9458724.
Results are given in words; binding and its absence hold for the method and conditions named. Some binding calls cover weakened binding; strength is not graded here.

Chains of the proteins cited; added tags and fusions are not shown. Residues count along the entry.
UniProt Q9H0Q3, residues 19-95: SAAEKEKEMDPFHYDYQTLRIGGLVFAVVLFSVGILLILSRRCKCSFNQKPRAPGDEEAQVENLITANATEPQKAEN

Target: human α3 subunit of the Na+/K+-ATPase, wild type, Flag-tagged (human) (UniProt P13637)
Test: cryo-EM structure; α3/β1/FXYD6 complex co-expressed in HEK 293F cells and co-purified by the Flag tag on α3 and size exclusion chromatography, in 0.06% digitonin, 20 mM HEPES pH 7.4, 150 mM NaCl or KCl; 4 mg/ml on grids; wild type trapped with ADP-AlF4- (E1•P-ADP) or MgF4 2- (E2•Pi); 4A mutant alone (E1), with AMPPCP (E1•ATP) or BeF3- (E2P); both purified

- binding: binds
Substance: human FXYD6 (from UniProt Q9H0Q3 19-95)
